Source: PubChem BioAssay (NCATS)
This list was built around the results that the source calls inconclusive (neither active nor inactive); the mix of calls is not that of the screen. Where the call is inconclusive, the potency comes from a doubtful curve fit. Calls of active or inactive are those of the source. Calls follow the shape of the dose curve; as a rule, active = well fitted inhibition curve with a large enough effect; inconclusive = small, poorly fitted or top-dose-only effect, or effect the other way; inactive = flat fitted curve, though single readings scatter.

Chains of the proteins cited; added tags and fusions are not shown. Lines headed by an entry give the natural chain unless they say otherwise; changes in a name come on top.
UniProt O15648: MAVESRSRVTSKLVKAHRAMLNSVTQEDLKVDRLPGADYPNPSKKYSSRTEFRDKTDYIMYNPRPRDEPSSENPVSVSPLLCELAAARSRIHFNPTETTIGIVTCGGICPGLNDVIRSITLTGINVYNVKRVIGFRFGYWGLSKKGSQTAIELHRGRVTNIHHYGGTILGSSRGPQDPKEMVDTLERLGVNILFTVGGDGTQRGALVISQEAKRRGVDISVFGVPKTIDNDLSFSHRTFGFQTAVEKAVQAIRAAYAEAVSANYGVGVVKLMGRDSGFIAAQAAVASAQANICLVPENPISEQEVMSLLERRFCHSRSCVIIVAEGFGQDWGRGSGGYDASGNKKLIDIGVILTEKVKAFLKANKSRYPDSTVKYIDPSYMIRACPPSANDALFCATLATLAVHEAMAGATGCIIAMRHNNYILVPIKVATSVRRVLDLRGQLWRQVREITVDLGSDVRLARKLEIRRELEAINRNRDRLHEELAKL

Target: ATP-dependent 6-phosphofructokinase (Trypanosoma brucei brucei) (UniProt O15648)
Test: qHTS Validation Assay to Find Inhibitors of T. brucei phosphofructokinase (AID 485368)
Conditions: T. brucei PFK enzyme assay, qHTS 7-point titration; series mostly up to 57.5 µM
Method in brief: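 Inhibition derived from concentration-response curves of luminescence, ranked by r2, response size and curve class; the underlying reaction used 1.25 nM PFK, 0.1 mM ATP and 0.5 mM F6P, 45 min, room temperature.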
Potency is read from the fitted curve at half-maximal effect.

Structure (SMILES) | Potency
CCN1/C(=C/C(C)=O)Sc2ccc(OC)cc21 | inactive
C#CCN(C)Cc1ccccc1 | inconclusive: 37.9 µM [activator, partial curve, poor fit]
CN1CCN(C2=Nc3cc(Cl)ccc3Nc3ccccc32)CC1 | inactive
NCCSSCCN | inactive
Cc1[nH]c(=O)c(C#N)cc1-c1ccc2nccn2c1 | inconclusive: 0.757 µM [falling, single point]
CC1=C(CC(=O)O)c2cc(F)ccc2/C1=C\c1ccc(S(C)=O)cc1 (stereo not given) | inconclusive: 0.0054 µM [falling, full curve, poor fit]
O=c1[nH]c(=O)c2nc3ccccc3nc2[nH]1 | inactive
CCN(CC)CCNC(=O)c1cc(Cl)c(N)cc1OC | inactive
Cc1ccc(O)c(N=Nc2ccccc2)n1 | active: 15.1 µM
O=C(c1ccc(OCCCc2cnc[nH]2)cc1)C1CC1 | inconclusive: 37.9 µM [activator, single point]
CN1CCc2cc(NC(=O)Nc3cccnc3)ccc21 | inconclusive: 37.9 µM [activator, partial curve, poor fit]
O=C(O)c1cc([N+](=O)[O-])ccc1NCCCc1ccccc1 | inconclusive: 33.8 µM [falling, single point]
Cc1cccc(/C=C/c2ccccc2)n1 | inconclusive: 15.1 µM [falling, single point]
COC1(C2=NCCN2)COc2ccccc2O1 (stereo not given) | inconclusive: 37.9 µM [activator, partial curve, poor fit]
CC(C)NCC(O)COc1ccc(CCOCC2CC2)cc1 (stereo not given) | inactive
